# PubChem BioAssay AID1259415 (National Center for Advancing Translational Sciences (NCATS), 2018)
# Among all 410,000 compounds or so, about 18,000 (4.4%) were called active. The shares of active, inactive and inconclusive entries below differ from those in the screen. No stated cut-off is given here; in the data, active means activity change below about -60%; inconclusive means no clear call, values can overlap the other calls; inactive means above about -39%.
# Test: qHTS Assay for inhibitors of the human cytomegalovirus (HCMV)
# Conditions: HFF cells, HCMV-luciferase reporter, 72 h; at 57.5 µM; active compounds read low
# Procedure, shortened: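 Cell-based, HFFs, 1000 cells/well, 16 h 37C; cpds in DMSO + HCMV-luc, MOI 1 PFU/cell; 72 h 37C; OneGlo luminescence after 5 min RT; norm. to buffer vs Salinomycin 10uM.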
# On the % scale 0 is the no-effect control and ±100 the full control effect.
row,SMILES,"activity change, negative = inhibition"
1,C/C(=N\Nc1ccccc1)c1cc2ccccc2oc1=O,inactive: -9.95%
2,COc1ccc(CCN(C)Cc2c(O)ccc3cc(Br)ccc23)cc1OC,active: -76.8%
3,CCOc1cc(/C=C(/NC(C)=O)C(=O)O)cc(Cl)c1OCc1ccc(Br)cc1,inconclusive: -42.3%
4,CCn1ccnc1CN(C)C(=O)c1ccc2nc(Cc3ccc(OC)cc3)oc2c1,inconclusive: -42.4%
5,O=C(c1ccc(Cl)cc1)C1CCCN(C(=O)c2csnn2)C1 (centres undefined),inconclusive: -41.4%
6,CCOc1ccccc1-n1c(C)cc(C=O)c1C,inconclusive: -54.3%
7,Cc1ccn2cc(C34CC5CC(CC(C5)C3)C4)nc2c1,inconclusive: -42.6%
8,Cc1c(Cl)ccc2sc(N3CCN(C(=O)C4=COCCO4)CC3)nc12,inconclusive: -46.8%
9,COc1ccc(CCNC(=O)c2ccc3c(c2)N(Cc2ccccc2)C(=O)c2ccccc2S3=O)cc1OC (centres undefined),inconclusive: -47.4%
10,COc1ccc(C)cc1S(=O)(=O)N1CCC(C)CC1,inconclusive: -42.2%
11,CCOC(=O)c1c(NC(=O)C(C)Sc2cccc[n+]2[O-])sc2c1CCN(Cc1ccccc1)C2 (centres undefined),inconclusive: -52.1%
12,NCCCCCc1nnc(SCc2ccccc2Cl)o1,active: -76.2%
13,CC(C)(C)c1ccc(C(=O)N/C(=C\c2ccco2)C(=O)Nc2ccccc2C(=O)O)cc1,inactive: -2.5%
14,C=Cc1cccc(NC(=O)c2ccc(NC(=O)c3ccco3)cc2)c1,inconclusive: -57.9%
15,Cc1ccc(NC(=O)c2ccc(F)cc2)cc1S(=O)(=O)N1CCCCCC1,active: -77.6%
16,CCOc1ccc(CNC(=O)c2ccc3c(c2)c(C)c(C)n3Cc2ccccc2)cc1OC,inconclusive: 0%
17,Cc1ccc(C)c(NC(=O)CN(C)C(=O)c2cc(-c3cccs3)nn2-c2ccccc2)c1,inconclusive: -46.8%
18,CC1CC(C)CN(S(=O)(=O)c2ccc3c(c2)CC(C)N3C(=O)C2CCC2)C1 (centres undefined),inconclusive: -55.4%
19,COc1ccccc1C(=O)Nc1ccc2nc(SCC(=O)N(C)c3ccccc3)sc2c1,active: -65.2%
20,CCCCCC(=O)Nc1ccccc1N1CCN(c2ccccc2)CC1,inconclusive: -51.8%
21,COc1ccc(OC)c(/C=C2\NC(=O)NC2=O)c1,active: -81%

row,SMILES,"activity change, negative = inhibition"
1,Cc1ccccc1Oc1nc2c(C)cccn2c(=O)c1/C=C(\C#N)C(=O)NC1CCS(=O)(=O)C1 (centres undefined),inactive: 85.4%
2,Cc1ccc(CNC(=O)CSc2nc3c(sc4ccccc43)c(=O)n2CCCOC(C)C)cc1,inactive: 6.91%
3,O=C(CC1C(=O)NCCN1Cc1ccccn1)NCCc1ccccc1F (centres undefined),inconclusive: -56.2%
4,COc1ccc([N+](=O)[O-])cc1NC(=S)NC(NC(=O)C(c1ccccc1)c1ccccc1)C(Cl)(Cl)Cl (centres undefined),active: -106%
5,c1ccc(-c2cc(-c3cc(-c4ccccc4)on3)no2)cc1,inactive: 36.4%
6,Cc1ccc2oc(=O)c3cnn(CC(=O)N4CCN(c5ccc(F)cc5)CC4)c3c2c1,inactive: -0.381%
7,Cc1cc(OCC(=O)Nc2ccncc2)cc(C)c1Cl,active: -63.6%
8,CC(C)Cc1nc(SCc2cccnc2)c2c(=O)n(C)c(=O)n(C)c2n1,inconclusive: -54%
9,COCCNC(=O)C(c1ccc(C)cc1)N(C(=O)CCC(=O)Nc1ccccn1)c1ccc(C)cc1 (centres undefined),inconclusive: -50%
10,O=C(NCCS(=O)(=O)N1CCN(c2ccc(F)cc2)CC1)C(c1ccccc1)c1ccccc1,inconclusive: -45.6%
11,O=C(COC(=O)c1c2c(nc3ccccc13)CCN(Cc1ccccc1)C2)Nc1c(F)cccc1F,active: -96.3%
12,O=C1NCCN1CCNS(=O)(=O)c1ccc(F)cc1,inconclusive: -40.3%
13,Cc1ccc(S(=O)(=O)N2CCCCC2)cc1C(=O)N(CCc1ccccc1)Cc1ccccc1,inconclusive: -52.4%
14,CCCc1cc(=O)oc2cc(O[C@@H]3O[C@H](CO)[C@@H](O)[C@H](O)[C@H]3O)ccc12,inconclusive: -57.8%
15,Cc1ccc(CNC(=O)C23CN(Cc4ccccc4)CC2C(c2ccc([N+](=O)[O-])cc2)=NO3)o1 (centres undefined),inactive: 68.8%
16,COc1ccc(OC)c(NC(=O)c2ccc(CN3CCc4ccccc4C3)cc2)c1,inconclusive: -44.5%
17,Cc1ccc(C2c3[nH]c4ccccc4c3C[C@H]3C(=O)N(c4ccccc4C(=O)N4CCC(C(=O)O)CC4)C(=O)N23)cc1 (some centres undefined),inactive: 2.36%
18,COc1ccc(C(=O)NC(=S)N(CCC(C)C)c2c(N)n(Cc3ccccc3)c(=O)[nH]c2=O)cc1,inconclusive: -49.2%
19,Oc1ccc(Cl)cc1C1=Nc2ccccc2N=C(c2ccccc2)C1,inactive: 34.6%
20,Cc1ccc(CSc2nc3cccnc3n2Cc2ccc(C(=O)NCc3ccco3)cc2)cc1,inactive: 67.8%
21,COc1cc(OC)cc(C(=O)NC(=S)NNC(=O)c2cnccn2)c1,active: -88.8%

# Gathered by group: the entries above with sulfur.
row,SMILES,"activity change, negative = inhibition"
5,O=C(c1ccc(Cl)cc1)C1CCCN(C(=O)c2csnn2)C1 (centres undefined),inconclusive: -41.4%
8,Cc1c(Cl)ccc2sc(N3CCN(C(=O)C4=COCCO4)CC3)nc12,inconclusive: -46.8%
9,COc1ccc(CCNC(=O)c2ccc3c(c2)N(Cc2ccccc2)C(=O)c2ccccc2S3=O)cc1OC (centres undefined),inconclusive: -47.4%
10,COc1ccc(C)cc1S(=O)(=O)N1CCC(C)CC1,inconclusive: -42.2%
11,CCOC(=O)c1c(NC(=O)C(C)Sc2cccc[n+]2[O-])sc2c1CCN(Cc1ccccc1)C2 (centres undefined),inconclusive: -52.1%
12,NCCCCCc1nnc(SCc2ccccc2Cl)o1,active: -76.2%
15,Cc1ccc(NC(=O)c2ccc(F)cc2)cc1S(=O)(=O)N1CCCCCC1,active: -77.6%
17,Cc1ccc(C)c(NC(=O)CN(C)C(=O)c2cc(-c3cccs3)nn2-c2ccccc2)c1,inconclusive: -46.8%
18,CC1CC(C)CN(S(=O)(=O)c2ccc3c(c2)CC(C)N3C(=O)C2CCC2)C1 (centres undefined),inconclusive: -55.4%
19,COc1ccccc1C(=O)Nc1ccc2nc(SCC(=O)N(C)c3ccccc3)sc2c1,active: -65.2%
1,Cc1ccccc1Oc1nc2c(C)cccn2c(=O)c1/C=C(\C#N)C(=O)NC1CCS(=O)(=O)C1 (centres undefined),inactive: 85.4%
2,Cc1ccc(CNC(=O)CSc2nc3c(sc4ccccc43)c(=O)n2CCCOC(C)C)cc1,inactive: 6.91%
4,COc1ccc([N+](=O)[O-])cc1NC(=S)NC(NC(=O)C(c1ccccc1)c1ccccc1)C(Cl)(Cl)Cl (centres undefined),active: -106%
8,CC(C)Cc1nc(SCc2cccnc2)c2c(=O)n(C)c(=O)n(C)c2n1,inconclusive: -54%
10,O=C(NCCS(=O)(=O)N1CCN(c2ccc(F)cc2)CC1)C(c1ccccc1)c1ccccc1,inconclusive: -45.6%
12,O=C1NCCN1CCNS(=O)(=O)c1ccc(F)cc1,inconclusive: -40.3%
13,Cc1ccc(S(=O)(=O)N2CCCCC2)cc1C(=O)N(CCc1ccccc1)Cc1ccccc1,inconclusive: -52.4%
18,COc1ccc(C(=O)NC(=S)N(CCC(C)C)c2c(N)n(Cc3ccccc3)c(=O)[nH]c2=O)cc1,inconclusive: -49.2%
20,Cc1ccc(CSc2nc3cccnc3n2Cc2ccc(C(=O)NCc3ccco3)cc2)cc1,inactive: 67.8%
21,COc1cc(OC)cc(C(=O)NC(=S)NNC(=O)c2cnccn2)c1,active: -88.8%

# Remaining list, next part.

row,SMILES,"activity change, negative = inhibition"
1,CCOC(=O)N/N=C/c1c(C)nn(-c2cccc(C(F)(F)F)c2)c1Cl,inconclusive: -54.6%
2,Cc1ccc(S(=O)(=O)NCC2CCC(C(=O)NCCc3ccccc3)CC2)cc1 (centres undefined),inactive: 0%
3,CCN(CC)CCN1C(=O)c2cccc3cc(N)cc(c23)C1=O,active: -98.6%
4,CCOc1ccc(-c2c[n+]3c(n2-c2ccccc2)CCCCC3)cc1,active: -97.9%
5,Nc1nonc1OCCN1CCN(c2ccc([N+](=O)[O-])c3cccnc23)CC1,inconclusive: -47.5%
6,CCCCc1c(-c2ccccc2OC)ncn1CCc1ccccc1OC,active: -68.3%
7,Cc1cc(C)c(O)c(-c2cc(C(=O)NCCc3ccc(S(N)(=O)=O)cc3)[nH]n2)c1,inconclusive: -44.6%
8,CCN(c1cccc(C)c1)S(=O)(=O)c1cc(Br)cc2c1N(C(C)=O)C(C)C2 (centres undefined),inconclusive: -40.9%
9,COc1ccc(NC(=O)c2c(C)oc3ccc(O)c(CN4CCC(C)CC4)c23)cc1Cl,inconclusive: -59.2%
10,Cc1cccc(OCC(=O)Nc2ccccc2C(=O)OCc2cc(=O)n3ccsc3n2)c1,inactive: 48.3%
11,O=C(Nc1ccc(Cc2ccncc2)cc1)c1ccc([N+](=O)[O-])o1,active: -101%
12,CCOC(=O)CCCCC(=O)c1[nH]c(=O)[nH]c1CSc1nnc2c3ccccc3n(C(C)C)c2n1,inconclusive: -52.5%
13,Cc1cccc(CNC(=O)Cn2c(-c3cccs3)cc3ccccc32)c1,inactive: 6.02%
14,COCC(C)NC(=S)NC(=O)c1cc(S(=O)(=O)N2CCOCC2)ccc1C (centres undefined),inconclusive: -51.4%
15,COc1ccc(SCCc2nnc(-c3ccccc3)o2)cc1,active: -97.5%
16,O=c1c2ccccc2c(C=Nc2ccc(S(=O)(=O)N3CCCCC3)cc2)c(O)n1-c1ccc(Cl)cn1,inactive: 56.1%
17,O=S(=O)(/N=C(/Nc1ccc(F)cc1F)c1ccccc1)c1ccc(Br)cc1,inconclusive: -46.1%
18,COc1ccc2[nH]c3c(c2c1)CCNC3C1CC=C(C)CC1 (centres undefined),inconclusive: -48.5%
19,N#CC1C(=O)NC(=O)C(C#N)C12CCCC2 (centres undefined),inconclusive: -57.3%
20,CC(=O)c1ccc(NC(=O)COC(=O)c2ccc(F)cc2F)cc1,inconclusive: -43.8%
21,Cc1nnsc1C(=O)N/N=C/c1ccc(OC(F)(F)F)cc1,active: -60.5%

row,SMILES,"activity change, negative = inhibition"
1,COc1ccc2nc(C)cc(SCC(=O)N/N=C/c3c(OC)ccc4ccccc34)c2c1,inactive: -2.79%
2,Cc1cccc(Cc2cccc(C)c2O)c1O,inconclusive: -41.4%
3,Cc1ccc(C(=O)NC(=S)Nc2ccc(N3CCOCC3)cc2)cc1,active: -103%
4,NC(=O)CC(NC(=O)c1ccc(Br)cc1)c1ccc(NC2CCCCCC2)c([N+](=O)[O-])c1 (centres undefined),inconclusive: -41.4%
5,COC(=O)c1ccc(NC(=S)NC2CCCCC2)cc1,inconclusive: -42.8%
6,COc1ccc(C2=NN(C(=O)CSc3nc(=O)n4cccc(C)c4n3)C(c3ccc(C)cc3)C2)cc1 (centres undefined),inconclusive: -55.8%
7,CCN1C(=O)C2(C(C#N)=C(N)Oc3n[nH]c(-c4ccc(Cl)cc4)c32)c2ccccc21 (centres undefined),inconclusive: -42.4%
8,Cc1nn(Cc2cccc(F)c2)c(C)c1NC(=O)c1ccc(COc2ccccc2Cl)cc1,active: -75.6%
9,Clc1ccc2nc(C3CCCCC3)c(Cc3ccsc3)n2c1,inactive: 1.74%
10,CCN(C(=O)CSc1nnc(COc2ccccc2F)n1N)c1c(N)n(Cc2ccccc2)c(=O)[nH]c1=O,inconclusive: -41.2%
11,COc1ccc(C2(OC)Oc3cc(OC)ccc3C(=O)C2(O)OC)cc1 (centres undefined),inconclusive: -57.9%
12,Cc1ccc(-c2nc(-c3cccnc3)sc2CC(=O)O)cc1,inconclusive: -43.6%
13,Cc1cc(C(=O)Nc2ccccc2C(=O)N2CCCCC2)ccc1[N+](=O)[O-],inconclusive: -43.9%
14,CCc1ccccc1NC(=O)C1CCN(C(=O)c2cccs2)CC1,inconclusive: -41.9%
15,CCN(CC)c1nc2ccccc2nc1C(=O)Nc1ccc(C(C)=O)cc1,inactive: -12.8%
16,Cc1scc(C(=O)N2CCN(c3ccc(Cl)cc3)CC2)c1C,inconclusive: -50.5%
17,CC1(C)CC(=O)C(C=NCCc2ccccn2)=C(O)C1,inactive: 15.6%
18,CCc1cccc(NC(=O)c2cc3c(=O)n(Cc4ccccc4)ccc3nc2C)c1,inactive: -0.516%
19,O=C(N/N=C/c1cccnc1)c1ccccc1OCc1cccc(Br)c1,inconclusive: -51.3%
20,O=C(CSc1nnc2c(n1)[nH]c1ccccc12)Nc1ccc(N2CCOCC2)cc1,inactive: -4.93%
21,O=C(Nc1ccc(F)cc1)OC[C@@H]1CSCCS(=O)(=O)N1,inactive: 12.9%
